According to patent US7378387B2, “Method of suppressing immune response by reducing intracellular content of glutathione in macrophages and monocytes” (Ajinomoto Co., Inc., priority 1997, dated 2008):
For at least one compound, name, drawing or mass did not settle the structure.

Test system: peritoneal exudate cells (macrophages)
Experiment: Induction of oxidative or reductive macrophages by administration, monochlorobimane/ACAS (Example 9)
Assay type: in vivo, DBA/2 mice
Settings: Day 1 and Day 2, cells harvested 20 hours later; 20 μg (NAC-OMe)2 or (NAC)2, 10 μg acetylgliotoxin, 2 mg NAC intraperitoneally; 40 μg dexamethasone subcutaneously
Experimental: This was clarified by harvesting peritoneal exudate cells 20 hours after the completion of the administration, adhering the cells to the plastic surface, then reacting the cells with 10 μM of monochlorobimane at 37° C. for 30 minutes, and analyzing the reaction product with ACAS. The increase in the amounts of oxidative macrophages can easily be determined visually from the fact that almost no reaction product with monochlorobimane is observed, namely, a gray or blue image is provided, and the increase in the amounts of reductive macrophages from the fact that a red or yellow image is provided respectively. […] Meanwhile, the same examination was conducted by harvesting peritoneal exudate cells after 20 hours of the administration of 2 mg of N-acetylcystine (NAC).

In the case of `C[C@@H]1C[C@H]2[C@@H]3CCC4=CC(=O)C=C[C@]4(C)[C@@]3(F)[C@@H](O)C[C@]2(C)[C@@]1(O)C(=O)CO` [Dexamethasone, dexamethasone, reference compound], the “type of macrophages induced (monochlorobimane, ACAS)” value is reported as “oxidative macrophages were strongly induced”.
